Drawing on PubChem BioAssay AID2685 (National Center for Advancing Translational Sciences (NCATS), 2010), this text covers cell number change and AC50 for 57 molecules.

A short description of the test: qHTS Assay for Lipid Storage Modulators in Drosophila S3 Cells.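 On cell number change: cells counted by Cell Tracker Red CMTPX staining in the red channel.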 Conditions: BODIPY lipid droplet fluorescence, 18-24 h; for cell number change: measured here: cell count max response, cells fed with added oleic acid. In short, it runs like this:
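Drosophila S3 cells loaded with oleic acid (400 uM, as added) and compounds at several concentrations; lipid droplets imaged by 488-nm laser-scanning cytometry, 500–530 nm intensity and object ratio to cell channel. Percent activity normalized to 20 uM Triacsin C.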
Background: qHTS replaces the single test concentration by a dilution series.

Where [1] appears, read: measured here: cell number channel AC50, cells fed with added oleic acid.
Setting [2] is: measured here: lipid fluorescence (Fed channel) AC50, cells fed with added oleic acid.

This is one part of the list. These are further read-outs of the screen, such as a control signal, another cell line or another target. No call is given for them. Most of these compounds were active or inconclusive in the main read-out, so they are no random draw. Words in brackets tell the shape of the fitted curve; partial curves, single points and poor fits give uncertain potencies. Where a SMILES comes first, the peptide text is derived from it. The star is where a group is joined. Cbz = O=C(OCc1ccccc1)*; Boc = CC(C)(C)OC(=O)*

For the molecule `CC(=O)Nc1cc(NC(C)=O)cc(C(=O)OCC(=O)c2ccc3c(c2)NC(=O)CO3)c1`, the cell number change was -6.83%.

Regarding `COc1cc2ccccc2cc1C(=O)Nc1ccc(C)cn1`, the cell number change amounted to 23.3%.

By AC50 is commonly meant the midpoint of the concentration-response curve, whichever way the signal moves. The low end stands for activity at low concentration, the high end for activity only at high concentration. For `CCOC(=O)/C=c1\s/c(=C\c2c(OC)ccc3ccccc23)c(=O)n1CC(=O)NCC1CCCO1` (stereo unspecified), the AC50 under setting [1] was 3.26 µM [rising, single point] and the AC50 under setting [2] was 5.8 µM [rising, single point].

Turning to `CC1CCCC(NC(=O)COC(=O)/C=C/c2ccco2)C1C` (stereo unspecified), the cell number change was found to be 2.29%. The AC50 under setting [2] was 0.0651 µM [falling, full curve].

`COc1cc2c(cc1OC)CN(C(=O)CSc1nc(N)c(C#N)cc1C#N)CC2`: the cell number change worked out at 10.5%. The AC50 under setting [2] is 1.16 µM [rising, partial curve].

Turning to `C=CCSc1nc(N)c(C(=O)Nc2ccccc2OC)cc1C(=O)Nc1ccccc1`, the AC50 under setting [2] was 6.51 µM [rising, partial curve, poor fit].

Take `CCCCC(=O)OCc1nc(N)nc(Nc2ccccc2C)n1`: the cell number change came to 35.5%. Also, the AC50 under setting [1] was 11.6 µM [rising, partial curve]. For the same molecule, the AC50 under setting [2] is 29.1 µM [rising, single point].

As to `Cc1cccc(NC(=O)c2ccccc2SCc2ccc(F)cc2)n1`, the cell number change is 30%. Besides, the AC50 under setting [2] is 18.4 µM [rising, partial curve, poor fit].

Turning to `O=S(=O)(Oc1ccccc1N1CCCCC1)c1ccccc1`, the cell number change was -47.3%. Besides, the AC50 under setting [1] is 32.6 µM [falling, single point]. Further, the AC50 under setting [2] was 29.1 µM [falling, single point].

As to `CCOC(=O)N/N=C/c1cn(Cc2ccc(Cl)cc2)c2ccccc12`, the cell number change was -55.9%. Further, under setting [1], the AC50 was 0.00517 µM [falling, full curve, poor fit]. Moreover, the AC50 under setting [2] is 3.66 µM [rising, partial curve, poor fit].

On to `CCc1cc2c(SCC(=O)N3CCCC3=O)ncnc2s1`, for which the cell number change was -8.9%. Besides, the AC50 under setting [2] is 0.146 µM [rising, full curve, poor fit].

As for `CCCCCn1c(C(C)NC(=O)CCC)nc2ccccc21` (stereo unspecified), the AC50 reads like this: under setting [1], 0.82 µM [rising, partial curve]; under setting [2], 0.58 µM [rising, single point].

As to `Cc1ccc2cc3cc(C(=O)N(CC(=O)NC4CCCC4)c4cccc(C)c4C)sc3nc2c1`, the cell number change is -40.7%. Further, under setting [2], the AC50 was 3.26 µM [falling, partial curve].

In the case of `Cc1cccc(NC(=S)NCc2cccn2C)c1`, the cell number change came to 61.5%. Also, under setting [1], the AC50 was 11.6 µM [rising, partial curve]. Under setting [2], the AC50 is 13 µM [rising, partial curve].

Turning to `CCOc1ccc(-c2nc(CSc3nnc(N)s3)cs2)cc1OC`, the cell number change was 14.3%. For the same molecule, the half-maximal activity concentration (AC50) under setting [2] is 0.411 µM [rising, partial curve, poor fit].

For the molecule `Cc1c(NC(=O)CN2C(=O)NC(C)(c3ccc(Cl)cc3)C2=O)c(=O)n(-c2ccccc2)n1C` (stereo unspecified), the cell number change was -22%. In addition, the AC50 under setting [1] is 2.91 µM [falling, full curve, poor fit]. Under setting [2], the AC50 is 3.66 µM [falling, full curve].

Consider `Cc1cc(NC(=O)CNC(=O)C2CCCCC2)no1`, for which the cell number change is -1.66%. The AC50 under setting [2] was 6.51 µM [falling, single point].

In the case of `Cc1cc(NC(=O)CCCn2nc([N+](=O)[O-])c(Cl)c2C)no1`, the cell number change worked out at 24.4%.

Turning to `O=C(c1ccccc1SCc1ccccc1)N1CCCCCC1`, under setting [1], the AC50 is 3.66 µM [rising, single point].

For `CCOc1ccc(OCCC(=O)OCC(=O)Nc2ccc3c(c2)OCCO3)cc1`, the cell number change is -42.9%. Besides, the AC50 under setting [1] is 20.6 µM [falling, single point]. In addition, the AC50 under setting [2] was 23.1 µM [falling, single point].

In the case of `Cc1ccc(COc2ccc(/C=N/NC(=O)c3nnn(-c4nonc4N)c3COc3ccc(F)cc3)cc2)cc1`, the cell number change was found to be 15.8%. Under setting [2], the AC50 is 0.13 µM [rising, full curve].

Take `C#CCOCCOCCOCCNc1nc(N2CCN(C(=O)CCCCCCCCCCNC(=O)[C@H]([C@@H](C)CC)n3cc(CCCCN=C(N)N)nn3)CC2)nc(N2CCN(C(=O)CCCCCCCCCCNC(=O)[C@H](CCCCN)n3cc(C[C@@H](C)CC)nn3)CC2)n1`: the cell number change was -86.6%. For the same molecule, the AC50 under setting [1] is 6.51 µM [falling, partial curve]. The AC50 under setting [2] is 13 µM [falling, partial curve].

Take `O=C(COC(=O)c1ncc(Cl)c(Cl)c1Cl)NCc1cccs1`: the cell number change was -25.6%. Also, under setting [2], the AC50 was 18.4 µM [falling, single point].

As to `Cc1onc(-c2ccccc2Cl)c1C(=O)N1CCN(C/C=C/c2ccccc2)CC1`, the cell number change was -8.7%. In addition, under setting [2], the AC50 was 0.116 µM [falling, full curve].

As to `CCOc1ccc(N2C(=O)CC(N)C2=O)cc1` (stereo unspecified), the cell number change was -72.1%. For the same molecule, the AC50 under setting [1] is 18.4 µM [falling, single point]. Besides, the AC50 under setting [2] is 23.1 µM [falling, single point].

As to `CCOC(=O)C1(CCc2ccccc2)CCN(Cc2ccc(O)cc2)CC1`, the cell number change is -13.6%. For the same molecule, the AC50 under setting [2] is 0.731 µM [falling, full curve].

For the molecule `Cc1cccc(NS(=O)(=O)c2ccc(C(=O)NCC(c3ccco3)N3CCCCC3)cc2)c1C` (stereo unspecified), the AC50 under setting [1] is 4.11 µM [rising, single point].

With `COc1cc(NC(=S)Nc2ccc(S(=O)(=O)N3CCOCC3)cc2)cc(OC)c1OC`, the cell number change came to 58.3%. In addition, the AC50 under setting [1] was 2.31 µM [rising, partial curve]. Further, the AC50 under setting [2] is 13 µM [rising, partial curve].

Take `O=C(CCCc1nc(-c2ccccc2Cl)no1)NC1CCCC1`: the cell number change was 3.88%. Moreover, under setting [2], the AC50 is 6.51 µM [falling, single point].

On to `CCOc1ccc(N2C(=O)CC(Sc3nc(CC(C)C)ccc3C#N)C2=O)cc1` (stereo unspecified), for which the cell number change is 9.67%.

With `COc1cc(C=O)ccc1OCc1c(C)noc1C`, the cell number change is -110%. Further, under setting [1], the AC50 is 11.6 µM [falling, partial curve]. For the same molecule, the AC50 under setting [2] was 1.3 µM [falling, partial curve].

On to `COC(=O)c1ccccc1Sc1c(/C=N/OCc2ccc(Cl)cc2)c(C(F)(F)F)nn1C`, for which the cell number change stood at 3.31%. The AC50 under setting [2] is 1.3 µM [rising, partial curve].

On to `Cc1cc(=O)[nH]c(SC(C(=O)O)c2ccccc2)n1` (stereo unspecified), for which the cell number change was determined as 81.5%. Also, the AC50 under setting [1] is 4.11 µM [rising, full curve]. In addition, the AC50 under setting [2] is 3.66 µM [rising, full curve].

For `OCCC1CN(Cc2cnn(-c3ccccc3Cl)c2)CCN1Cc1ccsc1` (stereo unspecified), the cell number change amounted to 25.7%. Further, the concentration at half-maximal activity (AC50) under setting [2] is 25.9 µM [rising, partial curve].

For the molecule `Cc1snc(S(=O)(=O)/C(C#N)=N\Nc2ccccc2)c1C#N`, the cell number change was found to be 7.16%. Moreover, the AC50 under setting [2] was 1.84 µM [rising, full curve].

As for `COc1ccc(CC2=C(O)c3ccccc3C(=O)C2=O)cc1`, the cell number change is -21.5%. Moreover, the AC50 under setting [2] was 29.1 µM [falling, single point].

For `Cc1cccc(Oc2nc(-c3cccc([N+](=O)[O-])c3)nc3ccccc23)c1C`, the cell number change is -8.63%.

With `COc1ccc(OC)c(-n2c(-c3cnccn3)n[nH]c2=S)c1`, the cell number change came to 60.4%. For the same molecule, the AC50 under setting [1] is 29.1 µM [rising, single point].

For the molecule `COc1ccc(CCNC(=O)c2cc(-c3ccncc3)nc3c(Cl)cccc23)cc1OC`, the cell number change is -26.8%. Also, the concentration at half-maximal activity (AC50) under setting [1] was 4.11 µM [falling, full curve, poor fit]. The AC50 under setting [2] is 29.1 µM [falling, single point].

In the case of `COc1ccc2c(c1)CC/C(=C\C=C\c1ccccc1OC)C2=O`, the cell number change was -22.6%. The AC50 under setting [2] is 29.1 µM [falling, single point].

For `Cc1cc(C)nc(SCCc2ccncc2)n1`, the AC50 under setting [2] was 0.58 µM [rising, single point].

Take `COc1cccc(OCC(O)CO)c1` (stereo unspecified): the cell number change is 15.2%. Further, the AC50 under setting [2] is 0.461 µM [falling, full curve, poor fit].

As to `COc1ccc(OC)c(/C=N/c2c(-c3ccc(O)c(OC)c3)nc3ccccn23)c1`, the cell number change was -32.5%. Under setting [1], the concentration at half-maximal activity (AC50) was 16.4 µM [falling, single point]. Further, the AC50 under setting [2] is 16.4 µM [falling, single point].

On to `Cc1cc(-c2ccc(S(=O)(=O)N3CCCCC3)s2)on1`, for which the cell number change was 4.18%. The AC50 under setting [1] was 0.92 µM [rising, full curve, poor fit].

Consider `Cc1cc(S(=O)(=O)N2CCOCC2)ccc1OCC(=O)NCC1CCCO1` (stereo unspecified), for which the cell number change is -6.67%. For the same molecule, the AC50 under setting [2] is 29.1 µM [falling, partial curve, poor fit].

Consider `CC(=O)Nc1ccc(OCCOc2ccc(/C=C3/C(=N)N4C=CSC4=NC3=O)cc2)cc1`, for which the cell number change is -48.8%. For the same molecule, the AC50 under setting [1] is 5.17 µM [falling, partial curve]. Moreover, the AC50 under setting [2] is 2.59 µM [falling, full curve].

Take `O=C(Nc1ccc(C(=O)O)cc1)Nc1cccc([N+](=O)[O-])c1`: the cell number change was -4.82%. Moreover, the AC50 under setting [2] is 6.51 µM [falling, single point].

With `CC1N=C(N)C(c2nc3ccccc3n2C)=C1O` (stereo unspecified), the cell number change is 4.42%. The AC50 under setting [1] is 4.11 µM [rising, single point].

With `Cc1ccc2nc(SCC(=O)N3CC(C)OC(C)C3)nc(=O)n2c1` (stereo unspecified), the cell number change is 20.1%.

`Cc1ccc(NC(=O)CN2C(=O)N/C(=C/c3ccc(C)o3)C2=O)cc1`: the cell number change was -30.6%. In addition, the AC50 under setting [2] is 32.6 µM [falling, single point].

Consider `CC(C)c1nnc(NC(=O)CCC(=O)N2CCN(c3ccccc3F)CC2)s1`, for which the cell number change is -13.9%. In addition, the AC50 under setting [2] is 4.11 µM [falling, partial curve, poor fit].

Take `CC1CN(C(=O)c2cc3cc([N+](=O)[O-])ccc3s2)CC(C)O1` (stereo unspecified): the cell number change was -82.5%. In addition, the AC50 under setting [2] was 0.731 µM [rising, single point].

Turning to `O=C(c1cc(COc2ccc(F)cc2F)on1)N1CCSCC1`, the cell number change is -9.85%. Also, the AC50 under setting [2] was 0.0231 µM [falling, full curve, poor fit].

Turning to `O=c1[nH]cc(COCc2ccccc2)c(=O)[nH]1`, the cell number change was -10.9%.

Take `COc1cc(C2c3c(-c4ccccc4)n[nH]c3C(=O)N2c2ccccc2)ccc1O` (stereo unspecified): the cell number change turned out to be 0.453%.

On to `COc1cccc(N=Cc2ccc(O)cc2O)c1`, for which the cell number change was found to be 46.6%. Moreover, the concentration at half-maximal activity (AC50) under setting [1] is 29.1 µM [rising, single point].

As for `CC(C)(C)OC(=O)NCCCC[C@H](NC(=O)[C@H](Cc1c[nH]c2ccccc12)NC(=O)OCc1ccccc1)C(=O)O` (Cbz-Trp-Lys(Boc)-OH), the cell number change turned out to be 6.94%. Also, the AC50 under setting [2] is 6.51 µM [falling, single point].
